This test has as its target T1, Phf10-HA (wild type, zebrafish Phf10/Baf45a) (zebrafish) (UniProt Q6NWE1).
T1 sequence: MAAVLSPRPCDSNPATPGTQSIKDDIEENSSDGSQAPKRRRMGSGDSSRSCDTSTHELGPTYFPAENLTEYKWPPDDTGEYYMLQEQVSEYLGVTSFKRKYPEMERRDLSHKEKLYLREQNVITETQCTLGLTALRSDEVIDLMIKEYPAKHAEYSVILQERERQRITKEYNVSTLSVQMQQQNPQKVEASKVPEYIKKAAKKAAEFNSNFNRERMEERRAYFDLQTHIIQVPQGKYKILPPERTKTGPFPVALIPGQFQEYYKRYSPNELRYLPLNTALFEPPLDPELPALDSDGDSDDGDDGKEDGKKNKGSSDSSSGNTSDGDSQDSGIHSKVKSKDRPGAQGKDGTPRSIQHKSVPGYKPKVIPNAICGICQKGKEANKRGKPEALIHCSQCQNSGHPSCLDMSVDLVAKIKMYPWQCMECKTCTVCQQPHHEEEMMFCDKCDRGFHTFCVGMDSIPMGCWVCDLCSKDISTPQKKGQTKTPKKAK
Description: co-IP; anti-HA antibody (5 ug) immobilised with the Pierce Co-Immunoprecipitation Kit; RIPA lysates of about 200 zebrafish embryos at 6 hpf co-injected with bckdk mRNA and Phf10-HA or GFP-HA mRNA; incubated overnight at 4 °C; eluates blotted with anti-Bckdk antibody.

No constants are given. Whether binding was seen depends on the method and setting. In cells and extracts the contact can be indirect. Binding calls can cover weak binding; strength is not graded here. Sequences can lack the tags named with a protein.

On to “Branched-chain ketoacid dehydrogenase kinase, Bckdk (zebrafish) (enzyme)”, for which the binding result is recorded as “binds”.

Values taken from paper PMC12669676.
